Values from PubChem BioAssay AID1224830 (NIAID, 2016)

Test: 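Genes whose knock-down alters the TNF-alpha reporter response to LPS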 (primary screen)
System: human THP-1 monocytic leukaemia cells, TNF dual-luciferase reporter clone, PMA-differentiated to macrophage-like cells
Reagent: siRNA pool against human genes, 50 nM
Duration: LPS for 4 h, given about 3 days after siRNA transfection
Challenge: bacterial LPS (TLR4 ligand), 10 ng/ml
Measured: 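Ratio of firefly to renilla light, scaled to the plate median and expressed as a robust z-score per replicate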
Direction: TNF reporter robust z-score: higher = stronger TNF reporter response to LPS
Active means: 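Each well counts as active if its z-score is over 2.8 or under -1.5; controls are left without a call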
Shown is one part, drawn at random, of about 18,000 reagents tested. About 2,900 of all reagents (16%) count as active. 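Calls are made per well; low scores hint the gene aids the LPS response, high scores that it dampens it.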 Repeated entries: four replicate wells of each siRNA pool.

gene knocked down | PubChem SID | TNF reporter robust z-score | outcome
DNAJC8 (DnaJ heat shock protein family (Hsp40) member C8) | SID315454798 | -0.93 | inactive
DNAJC8 (DnaJ heat shock protein family (Hsp40) member C8) | SID315454798 | -0.25 | inactive
DNAJC8 (DnaJ heat shock protein family (Hsp40) member C8) | SID315454798 | 0 | inactive
DNAJC8 (DnaJ heat shock protein family (Hsp40) member C8) | SID315454798 | -0.87 | inactive
LYSMD4 (LysM domain containing 4) | SID315462255 | 0.88 | inactive
LYSMD4 (LysM domain containing 4) | SID315462255 | 1.16 | inactive
LYSMD4 (LysM domain containing 4) | SID315462255 | 0.74 | inactive
LYSMD4 (LysM domain containing 4) | SID315462255 | 1.52 | inactive
RPS2 (ribosomal protein S2) | SID315451213 | -1.81 | active
RPS2 (ribosomal protein S2) | SID315451213 | -1.38 | inactive
RPS2 (ribosomal protein S2) | SID315451213 | -1.41 | inactive
RPS2 (ribosomal protein S2) | SID315451213 | -1.07 | inactive
FBH1 (F-box DNA helicase 1) | SID315460552 | -0.36 | inactive
FBH1 (F-box DNA helicase 1) | SID315460552 | -0.55 | inactive
FBH1 (F-box DNA helicase 1) | SID315460552 | -0.84 | inactive
FBH1 (F-box DNA helicase 1) | SID315460552 | -0.88 | inactive
SEC13 (SEC13 homolog, nuclear pore and COPII component) | SID315451362 | 0.35 | inactive
SEC13 (SEC13 homolog, nuclear pore and COPII component) | SID315451362 | -0.9 | inactive
SEC13 (SEC13 homolog, nuclear pore and COPII component) | SID315451362 | -0.83 | inactive
SEC13 (SEC13 homolog, nuclear pore and COPII component) | SID315451362 | 0.27 | inactive
MAD2L1BP (MAD2L1 binding protein) | SID315453405 | -0.26 | inactive
MAD2L1BP (MAD2L1 binding protein) | SID315453405 | 0.18 | inactive
MAD2L1BP (MAD2L1 binding protein) | SID315453405 | -0.07 | inactive
MAD2L1BP (MAD2L1 binding protein) | SID315453405 | -0.46 | inactive
HCCS (holocytochrome c synthase) | SID315449162 | 1.76 | inactive
HCCS (holocytochrome c synthase) | SID315449162 | 1.2 | inactive
HCCS (holocytochrome c synthase) | SID315449162 | -0.46 | inactive
HCCS (holocytochrome c synthase) | SID315449162 | 2.35 | inactive
UBE2H (ubiquitin conjugating enzyme E2 H) | SID315452044 | -1.79 | active
UBE2H (ubiquitin conjugating enzyme E2 H) | SID315452044 | -0.56 | inactive
UBE2H (ubiquitin conjugating enzyme E2 H) | SID315452044 | -0.31 | inactive
UBE2H (ubiquitin conjugating enzyme E2 H) | SID315452044 | -0.18 | inactive

5 entries from above, reformatted.
RPS2 (ribosomal protein S2) [SID315451213]
- TNF reporter robust z-score: -1.41
- outcome: inactive

RPS2 (ribosomal protein S2) [SID315451213]
- TNF reporter robust z-score: -1.07
- outcome: inactive

FBH1 (F-box DNA helicase 1) [SID315460552]
- TNF reporter robust z-score: -0.36
- outcome: inactive

FBH1 (F-box DNA helicase 1) [SID315460552]
- TNF reporter robust z-score: -0.55
- outcome: inactive

FBH1 (F-box DNA helicase 1) [SID315460552]
- TNF reporter robust z-score: -0.84
- outcome: inactive

Continued:
gene knocked down | PubChem SID | TNF reporter robust z-score | outcome
SLC6A7 | SID315451473 | -0.2 | inactive
SLC6A7 | SID315451473 | -1.13 | inactive
SLC6A7 | SID315451473 | -0.02 | inactive
SLC6A7 | SID315451473 | -0.17 | inactive
SMTNL2 (smoothelin like 2) | SID315464134 | 0.62 | inactive
SMTNL2 (smoothelin like 2) | SID315464134 | 1.54 | inactive
SMTNL2 (smoothelin like 2) | SID315464134 | 1.46 | inactive
SMTNL2 (smoothelin like 2) | SID315464134 | 1.78 | inactive
SLC5A4 | SID315451466 | -0.87 | inactive
SLC5A4 | SID315451466 | -0.45 | inactive
SLC5A4 | SID315451466 | -0.11 | inactive
SLC5A4 | SID315451466 | -0.06 | inactive
C2CD3 (C2 domain containing 3 centriole elongation regulator) | SID315455610 | 1.87 | inactive
C2CD3 (C2 domain containing 3 centriole elongation regulator) | SID315455610 | 2.14 | inactive
C2CD3 (C2 domain containing 3 centriole elongation regulator) | SID315455610 | 2.33 | inactive
C2CD3 (C2 domain containing 3 centriole elongation regulator) | SID315455610 | 2.31 | inactive
